PMC5767323, “Differential NtcA Responsiveness to 2-Oxoglutarate Underlies the Diversity of C/N Balance Regulation in Prochlorococcus” (Frontiers in Microbiology, 2018)

What was measured:
[1] = molecular target: T1, NtcA MIT9313 (Prochlorococcus sp. MIT9313) (UniProt Q7TUN1); test: ITC; settings: ITC: 50 mM Hepes, 350 mM NaCl, pH 7.5, 25 C, 0-10 mM 2OG, recombinant protein, protein details: His6 (pET-15b)
T1 sequence (looked up, limits assumed): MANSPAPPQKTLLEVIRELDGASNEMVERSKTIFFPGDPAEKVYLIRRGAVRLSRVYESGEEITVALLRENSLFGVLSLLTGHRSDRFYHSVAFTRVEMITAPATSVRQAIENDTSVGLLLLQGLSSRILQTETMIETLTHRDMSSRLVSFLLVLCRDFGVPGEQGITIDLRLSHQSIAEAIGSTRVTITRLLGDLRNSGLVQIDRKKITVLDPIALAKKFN

[2] = molecular target: T1, NtcA MIT9313 (Prochlorococcus sp. MIT9313); test: EMSA; settings: 0-10 mM 2OG, 1 uM NtcA; EMSA: as Napolitano et al. 2012, 1 uM NtcA; recombinant protein; protein details: His6 (pET-15b)
[3] = molecular target: T2, NtcA MED4 (Prochlorococcus sp. MED4) (UniProt Q7TUG3); test: ITC; settings: no 2OG; ITC: 50 mM Hepes, 350 mM NaCl, pH 7.5, 25 C, 0-10 mM 2OG; recombinant protein; protein details: His6 (pET-15b)
T2 sequence (looked up, limits assumed): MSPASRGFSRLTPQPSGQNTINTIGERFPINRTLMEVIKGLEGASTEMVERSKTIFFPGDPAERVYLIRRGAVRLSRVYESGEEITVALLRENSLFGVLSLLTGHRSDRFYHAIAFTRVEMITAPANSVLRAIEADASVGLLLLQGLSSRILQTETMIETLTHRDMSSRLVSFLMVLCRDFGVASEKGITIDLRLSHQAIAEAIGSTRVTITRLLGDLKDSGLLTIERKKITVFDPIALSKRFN

[4] = molecular target: T3, NtcA SS120 (Prochlorococcus sp. SS120) (UniProt Q7VDU1); test: ITC; settings: no 2OG; ITC: 50 mM Hepes, 350 mM NaCl, pH 7.5, 25 C, 0-10 mM 2OG; recombinant protein; protein details: His6 (pET-15b)
T3 sequence (looked up, limits assumed): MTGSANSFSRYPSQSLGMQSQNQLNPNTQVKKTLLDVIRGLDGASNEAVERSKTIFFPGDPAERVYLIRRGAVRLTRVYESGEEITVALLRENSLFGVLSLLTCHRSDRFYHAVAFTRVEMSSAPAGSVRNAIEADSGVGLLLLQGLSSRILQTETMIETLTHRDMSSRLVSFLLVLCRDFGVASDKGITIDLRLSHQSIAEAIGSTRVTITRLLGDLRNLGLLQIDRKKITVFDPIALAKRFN

Sequence: TAGAAGAGAAAGGATCCGCAAAAAG / CTTTTTTGCGGATCCTTTCTCTTCTA [DNA2, glnA promoter MIT9313 mutated]
- Kd ([1]; independent of 2OG): 2.1 µM
- binding result [2]: no binding

Sequence: TAGAAGGTACCTGTTGCTACAAAAAG (double strand) [DNA1, glnA promoter MIT9313 wt]
- Kd ([1]; no 2OG): 0.97 µM

Sequence: AAAAAGTTACCTTTGATACATAAT (double strand) [DNA5, glnA promoter MED4 wt]
- Kd [3]: 4.8 µM

Sequence: CCAATAGTCACAAAAAGTACTTATTG (double strand) [DNA3, glnA promoter SS120 wt]
- Kd [4]: 6.7 µM

For at least one entry, the source does not settle the construct or the ends of the probe. For some assays here: Negatives hold for the conditions tested. Where a protein sequence is shown, tags need not be part of it.
